Measured values as given in PubChem BioAssay AID2517 (National Center for Advancing Translational Sciences (NCATS), 2010).
Hit rate of the full screen: of about 350,000 compounds, about 1,200 (0.34%) were called active. The inconclusive results got no clear call from the source; some entries with a clear call stand among them for comparison. The call rests on the fitted dose curve; in most records, active means well fitted inhibition curve with a large enough effect; inconclusive means small, poorly fitted or top-dose-only effect; inactive means no such curve, though single readings can be large or run the other way. Potencies beside an inconclusive call are fits to weak or partial responses and may not hold up.

Sequences of proteins named here, by UniProt entry; tags and fusion partners are left off.
UniProt P27695, whole entry, looked up: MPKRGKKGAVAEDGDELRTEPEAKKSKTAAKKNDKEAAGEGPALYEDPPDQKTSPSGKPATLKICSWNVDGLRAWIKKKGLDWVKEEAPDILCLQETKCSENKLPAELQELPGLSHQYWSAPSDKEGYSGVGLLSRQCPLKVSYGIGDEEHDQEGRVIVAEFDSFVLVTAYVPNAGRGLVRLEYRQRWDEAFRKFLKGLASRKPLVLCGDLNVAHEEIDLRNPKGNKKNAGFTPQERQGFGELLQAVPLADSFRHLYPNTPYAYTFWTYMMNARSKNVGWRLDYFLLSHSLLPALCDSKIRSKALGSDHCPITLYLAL

What follows are compounds tested against DNA repair nuclease/redox regulator APEX1 (Homo sapiens) (UniProt P27695) (assay: qHTS Assay for Inhibitors of the Human Apurinic/apyrimidinic Endonuclease 1 (APE1)). Conditions: recombinant APE1, TAMRA/BHQ-2 abasic DNA cleavage fluorescence; activity change, negative = inhibition: at 65.8 µM (top of the series).
In short: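 APE1 at 0.75 nM preincubated 15 min at room temperature with compound. Reaction then started with 50 nM double-stranded THF-abasic substrate labelled with TAMRA/BHQ-2, and 525/598 nm fluorescence read kinetically. Activity taken as third-minus-first read difference, normalized to DMSO and NSC13755 controls.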
Further: nearly all actives have a fitted effect of over 55% in size.
Potency means the concentration at half of the fitted maximal effect.
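Wherever activity change, negative = inhibition is given: plate controls were vehicle for no effect and reference inhibitor for full effect.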

| SMILES | Potency | activity change, negative = inhibition |
| --- | --- | --- |
| Cc1ccc(-n2c(SCc3cc(=O)n4ccsc4n3)nnc2-c2cccnc2)c(C)c1 | inconclusive: 25.1 µM [inhibitor, single point] | – |
| CC(=O)n1cc([C@@H]2C=C(C(=O)N3CCN(Cc4ccc5c(c4)OCO5)CC3)O[C@H](OCCCCO)C2)c2ccccc21 | inconclusive: 7.94 µM [inhibitor, single point] | – |
| COc1cc(OC)cc(C(=O)N(Cc2cc3cc(C)ccc3[nH]c2=O)C(C)C)c1 | – | inactive: -3.94% |
| COc1ccc2c(c1)CCc1c-2nc2ccccc2c1N1CCOCC1 | inconclusive: 35.5 µM [inhibitor, single point] | – |
| O=c1c(O)c(-c2cc(O)c(O)c(O)c2)oc2cc(O)ccc12 | active: 0.282 µM | – |
| Cc1cccc(NC(=O)c2nc[nH]c2C(=O)N[C@@H](C)C(=O)OC(C)(C)C)c1 | inconclusive: 39.8 µM [inhibitor, single point] | – |
| O=C(COC(=O)CC1c2ccccc2CCN1S(=O)(=O)c1ccccc1)Nc1ccccc1 (stereo not drawn) | inconclusive: 28.2 µM [inhibitor, partial curve, poor fit] | – |
| CCC(=O)Nc1ccccc1C(=O)OC(c1ccccc1)c1ccccc1 | inconclusive: 0.0045 µM [inhibitor, full curve, poor fit] | – |
| N#Cc1c(-c2cccs2)nc(SCc2ccc(Cl)cc2)[nH]c1=O | – | inactive: -14.9% |
| CC(=O)C1=C(O)CC(c2ccccc2)CC1=NCCc1c(C)[nH]c2ccccc12 (stereo not drawn) | inconclusive: 7.08 µM [inhibitor, single point] | – |
| CCc1nc(SCC(=O)Nc2nccs2)c2oc3ccccc3c2n1 | – | inactive: -3.83% |
| CCn1c(SCC(=O)NC(=O)NCc2ccco2)nc2sc(C)c(C)c2c1=O | inconclusive: 25.1 µM [inhibitor, single point] | – |
| Cn1c(=O)c(C(=O)COC(=O)c2cc(C3CC3)nc3ccccc23)c(N)n(Cc2ccccc2)c1=O | inactive | – |
| Cc1nn(-c2ccccc2)c(C)c1NC(=O)COc1ccc2ccccc2c1 | inconclusive: 44.7 µM [inhibitor, single point] | – |
| COc1ccc(C)cc1NC(=O)c1nnn(Cc2cc(C)ccc2C)c1N | inconclusive: 14.1 µM [inhibitor, partial curve] | – |
| COc1ccc(-c2ccc(C(c3c(C)[nH][nH]c3=O)c3c(C)[nH][nH]c3=O)o2)c([N+](=O)[O-])c1 | inconclusive: 35.5 µM [inhibitor, single point] | – |
| Cc1ccc(N2C(=O)C3C(C(=O)c4ccccc4)=NN(c4ccccc4)C3C2=O)cc1 (stereo not drawn) | – | inactive: 4.16% |
| S=C(N/N=C/c1ccco1)NC1CC2CCC1C2 (stereo not drawn) | inconclusive: 13.4 µM [inhibitor, partial curve] | – |
| CC(=O)Nc1c(S(=O)(=O)c2ccccc2)c2nc3ccccc3nc2n1Cc1ccccc1 | – | inactive: -9.01% |
| CC1(C)N=C(SCC(=O)Nc2ccc(Cl)cc2)C(c2ccc(Cl)cc2)=N1 | inconclusive: 3.16 µM [inhibitor, partial curve, poor fit] | – |
| CCCCC/C=C\C[C@@H](O)/C=C/C=C\CCC(=O)O | – | inactive: 1.13% |
| O=C(/C=C/c1ccco1)N1CCN(S(=O)(=O)/C=C/c2ccccc2)CC1 | inconclusive: 28.2 µM [inhibitor, single point] | – |

In another format: 9 of the compounds above.
SMILES | Potency | activity change, negative = inhibition
CC(=O)n1cc([C@@H]2C=C(C(=O)N3CCN(Cc4ccc5c(c4)OCO5)CC3)O[C@H](OCCCCO)C2)c2ccccc21 | inconclusive: 7.94 µM [inhibitor, single point] | –
COc1cc(OC)cc(C(=O)N(Cc2cc3cc(C)ccc3[nH]c2=O)C(C)C)c1 | – | inactive: -3.94%
CCC(=O)Nc1ccccc1C(=O)OC(c1ccccc1)c1ccccc1 | inconclusive: 0.0045 µM [inhibitor, full curve, poor fit] | –
CC(=O)C1=C(O)CC(c2ccccc2)CC1=NCCc1c(C)[nH]c2ccccc12 (stereo not drawn) | inconclusive: 7.08 µM [inhibitor, single point] | –
CCc1nc(SCC(=O)Nc2nccs2)c2oc3ccccc3c2n1 | – | inactive: -3.83%
CCn1c(SCC(=O)NC(=O)NCc2ccco2)nc2sc(C)c(C)c2c1=O | inconclusive: 25.1 µM [inhibitor, single point] | –
Cc1nn(-c2ccccc2)c(C)c1NC(=O)COc1ccc2ccccc2c1 | inconclusive: 44.7 µM [inhibitor, single point] | –
COc1ccc(C)cc1NC(=O)c1nnn(Cc2cc(C)ccc2C)c1N | inconclusive: 14.1 µM [inhibitor, partial curve] | –
COc1ccc(-c2ccc(C(c3c(C)[nH][nH]c3=O)c3c(C)[nH][nH]c3=O)o2)c([N+](=O)[O-])c1 | inconclusive: 35.5 µM [inhibitor, single point] | –

Remaining list, next part:

| SMILES | Potency | activity change, negative = inhibition |
| --- | --- | --- |
| CCOc1cc(/C=C2\C(=O)NN(c3ccccc3)C2=O)cc([N+](=O)[O-])c1O | inconclusive: 31.6 µM [inhibitor, single point] | – |
| CC(=O)Nc1ccc(S(=O)(=O)Nc2nc(C)nc3sc4c(c23)CCC4)cc1 | inconclusive: 3.98 µM [inhibitor, single point] | – |
| CCCCCCCCC#CCC#CCC#CCCCC(=O)O | inconclusive: 44.7 µM [inhibitor, single point] | – |
| Clc1ccc2c(N/N=C/c3ccccc3Br)ccnc2c1 | – | inactive: 3.46% |
| Cc1ccc(NC(=O)CN2C(=O)S/C(=C/c3ccc(-c4cc(C(=O)O)ccc4C)o3)C2=O)cc1C | inconclusive: 20 µM [inhibitor, partial curve] | – |
| O=c1cc(-c2cc(O)c(O)c(O)c2)oc2cc(O)cc(O)c12 | inconclusive: 0.891 µM [inhibitor, full curve, poor fit] | – |
| CCc1c(C)sc(NC(=O)CC#N)c1C#N | inconclusive: 25.1 µM [inhibitor, single point] | – |
| COc1cc(/C=N/NC(=O)c2cc3ccccc3cc2O)ccc1OCCN1CCCCC1 | – | inactive: -8.55% |
| O=C(CNCc1ccc(F)cc1)Nc1ccc(S(=O)(=O)N2CCOCC2)cc1 | – | inactive: 42.3% |
| CCOC(=O)C1=C(COC(=O)c2ccc([N+](=O)[O-])s2)NC(=O)NC1C (stereo not drawn) | inconclusive: 23.8 µM [inhibitor, single point] | – |
| O=C(O)/C=C/c1ccc(-c2cccc(C(F)(F)F)c2)o1 | inconclusive: 11.2 µM [inhibitor, partial curve] | – |
| CN(C)CC[C@H](c1ccc(Cl)cc1)c1ccccn1 | inconclusive: 7.94 µM [inhibitor, single point] | – |
| O=S(=O)(Nc1nc2ccccc2s1)c1cnc(Cl)c(Br)c1 | inconclusive: 2.82 µM [inhibitor, partial curve] | – |
| CCCCCCc1nc2ccccc2c(=O)n1NC(=O)c1c(O)c2cccc3c2n(c1=O)CCC3 | – | inactive: -0.223% |
| CC1(C(=O)O)CCC(C(=O)NC2CCCCCC2)C1(C)C (stereo not drawn) | – | inactive: -3.29% |
| COc1cc(O)ccc1/C=N/NC(=O)c1ccc([N+](=O)[O-])cc1 | inconclusive: 8.91 µM [inhibitor, single point] | – |
| CCSc1nc2[nH]ncc2c(=O)[nH]1 | inconclusive: 0.447 µM [inhibitor, full curve] | – |
| Cc1ccc(C)c(NC(=S)N(CCc2ccncc2)C(C)C)c1 | inconclusive: 44.7 µM [inhibitor, partial curve] | – |
| O=C(COC(=O)/C=C/c1ccco1)NC1CCCCC1 | inconclusive: 18.9 µM [inhibitor, partial curve] | – |
| CCOC(=O)c1ccccc1NS(=O)(=O)c1ccc(C)cc1 | inconclusive: 0.0708 µM [inhibitor, full curve] | – |
| COc1cc2c(=O)n(CCC(=O)NCC3CCCO3)c(=O)n(CC(=O)c3ccc(Cl)cc3)c2cc1OC (stereo not drawn) | inconclusive: 7.94 µM [inhibitor, single point] | – |
